{
  "source": "patent US5408036A",
  "about": "(The Scripps Research Institute, priority 1993, dated 1995)",
  "experiment": "general procedure: Boc solid-phase peptide synthesis; 4-methylbenzhydryl amine resin; BOP reagent, DIEA",
  "details": "whole synthesis, analytical RP HPLC",
  "data": [
    {"substance": "-Gly-Glu-Leu-Ala-Glu-Gln-Lys-Leu-Glu-Gln-Ala-Leu-Gln-Lys-Leu-Ala (GELAEQKLEQALQKLA; N-terminal 5-carboxyl-2,2'-bipyridine ligand)", "values": [
      {"measurement": "crude HPLC purity", "result": 90, "unit": "% pure"},
      {"measurement": "final HPLC purity", "result": ">99", "unit": "% pure"}
    ]}
  ]
}
